According to patent US20240103006A1 (Roche Diagnostics Operations, Inc., priority 2021, published 2024):

Test: Probe performance in Cedex Bio HT: Cys sensing in a feed medium
Conditions: feed medium DMT118F.01 with Cys
Protocol: The rapid kinetic profile, stability and low background signal as obtained were encouraging to further use MF70 for Cys-sensing in Cedex Bio HT. Reagent solution was treated with various Cys-concentrations (0.5-7.6 mM) in a feed medium, which is used for monoclonal antibody production. […] Under these conditions, a reliable response was obtained over the period of one week (Table 5), with corresponding detection limit of 3.6 μM Cys, and limit of blank 2.2 μM Cys.

In the case of `C=CC(=O)Oc1c(C)cc(/C=C/C2=[N+](CCCS(=O)(=O)O)c3ccc(S(=O)(=O)[O-])cc3C2(C)C)cc1C` [MF70], the Found (spiked Cys 0.5 mM) is reported as 0.64 mM, the Found (spiked Cys 1.5 mM) is reported as 1.64 mM and the Found (spiked Cys 3.0 mM) is reported as 3.03 mM. For the same compound, the Found (spiked Cys 4.5 mM) was 4.38 mM and the Found (spiked Cys 6.0 mM) was 5.83 mM.
